Measured data: PubChem BioAssay AID504774 (Drosophila RNAi Screening Center, 2011)
The screen tested about 23,000 reagents; shown is an unselected part of those with a known target gene and a result. 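Values are quantile-normalised luminescence on an arbitrary scale; higher means more cells surviving MMS.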 A plus sign joins genes that one reagent is predicted to hit. Not all columns of the deposit are shown. Reagent sequences are not shown.

- Aim: 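Fly genes whose loss alters survival after alkylation damage to DNA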 (primary screen)
- System: Drosophila Kc167 cells
- Knock-down reagent: long dsRNA against Drosophila genes, about 0.25 µg dsRNA per well
- Duration: about 6 days: 3 days knock-down, then 3 days with or without MMS
- Treatment: methyl methanesulphonate 0.004% (w/v) for 3 days after knock-down
- Measurement: 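ATP-dependent luminescence as a measure of live cells in MMS-exposed wells, quantile normalised within each plate, with replicate values also given as a mean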
- Direction: mean viability with MMS: higher = more surviving cells after MMS

gene | DRSC id | mean viability with MMS
CG7213 | DRSC10787 | 3.54e6
sing | DRSC19530 | 3.55e6
drl | DRSC03523 | 3.51e6
CG9877 | DRSC04587 | 3.59e6
Rb97D | DRSC16815 | 4.20e6
CG10352 | DRSC19353 | 3.61e6
MED30 | DRSC08516 | 3.01e6
MED30 | DRSC23135 | 2.98e6
CG33460 | DRSC05570 | 3.55e6
CG13405 | DRSC08310 | 3.67e6
Duox | DRSC00571 | 3.52e6
yellow-e3 | DRSC15170 | 3.50e6
CG31673 | DRSC03207 | 3.47e6
CG43861 | DRSC02308 | 3.43e6
mrt | DRSC15484 | 3.50e6
Vti1a | DRSC08563 | 3.29e6
CG7220 | DRSC05235 | 3.68e6
CG7220 | DRSC07018 | 3.59e6
fz4 | DRSC18780 | 3.46e6
CG32269 + CG32270 | DRSC08195 | 3.49e6
CG3999 | DRSC15534 | 3.54e6
CG18449 | DRSC06754 | 3.52e6
Atg10 + CG18853 + CG12822 | DRSC20757 | 2.40e6
CG32391 | DRSC08865 | 3.62e6
CG12470 | DRSC18620 | 3.53e6
CG10165 | DRSC02017 | 3.82e6
CG44838 | DRSC10330 | 2.93e6
CG44838 | DRSC10371 | 3.51e6
CG34451 | DRSC09388 | 3.55e6
CG34451 | DRSC09389 | 3.67e6
CG11858 | DRSC14412 | 3.69e6
CG4440 | DRSC02747 | 3.34e6
CG3176 + CR18166 + CG32817 | DRSC17271 | 3.73e6
CG3176 + CR18166 + CG32817 | DRSC17282 | 3.70e6
CG3176 + CR18166 + CG32817 | DRSC18288 | 3.71e6
mid | DRSC02977 | 3.49e6
mid | DRSC21493 | 3.79e6
Mst57Da + alpha4GT2 | DRSC13732 | 3.45e6
CG12519 | DRSC10311 | 3.56e6
CG12519 | DRSC21549 | 3.55e6
AnxB11 | DRSC19331 | 3.31e6
Rcd2 | DRSC11756 | 3.49e6
mRpL45 | DRSC16146 | 3.68e6
CG17154 | DRSC10253 | 3.52e6
Pglym87 | DRSC15252 | 3.66e6
CG33306 | DRSC01899 | 3.52e6
Uch | DRSC00797 | 3.40e6
CG13837 | DRSC14687 | 3.59e6
dpa | DRSC07604 | 3.58e6
defl | DRSC10300 | 3.15e6
l(2)dtl | DRSC04697 | 2.97e6
dpr3 | DRSC00395 | 3.45e6
dpr3 | DRSC00396 | 3.51e6
dpr3 | DRSC21369 | 2.39e6
por | DRSC20362 | 3.49e6
cic | DRSC14276 | 3.20e6
cic | DRSC15708 | 3.15e6
cic | DRSC16918 | 3.40e6
cic | DRSC21243 | 3.46e6
cic | DRSC23217 | 3.58e6
Fas2 | DRSC17308 | 3.55e6
Fas2 | DRSC17309 | 3.67e6
Fas2 | DRSC18664 | 3.35e6
Lasp | DRSC10379 | 3.41e6
HLH4C | DRSC18670 | 3.70e6
HLH4C | DRSC21322 | 3.59e6
CG34210 | DRSC04579 | 3.66e6
Trpml + CG42638 | DRSC11032 | 3.40e6
Kr-h2 | DRSC03356 | 3.55e6
CanA1 | DRSC16600 | 3.60e6
CG14100 | DRSC10101 | 3.55e6
CG8170 | DRSC07087 | 3.53e6
CG13081 | DRSC02185 | 3.53e6
E(spl)m4-BFM | DRSC16992 | 3.62e6
fd96Cb | DRSC16947 | 3.53e6
Tbca | DRSC15395 | 3.57e6
Alms1a | DRSC18558 | 3.56e6
CG11889 + CG11891 | DRSC14426 | 3.65e6
CG11889 + CG11891 | DRSC14427 | 3.49e6
CG31730 | DRSC01308 | 3.48e6
CG5641 | DRSC15852 | 3.42e6
CG13511 | DRSC04153 | 3.76e6
CG8042 | DRSC09676 | 3.50e6
CG32204 | DRSC09574 | 3.44e6
Chc | DRSC20229 | 3.53e6
PEK | DRSC12361 | 3.91e6
hubl | DRSC06825 | 3.55e6

Laid out differently: entries from further up
{"gene": "CG34451", "DRSC id": "DRSC09389", "mean viability with MMS": 3.67e6}
{"gene": "CG11858", "DRSC id": "DRSC14412", "mean viability with MMS": 3.69e6}
{"gene": "CG4440", "DRSC id": "DRSC02747", "mean viability with MMS": 3.34e6}
{"gene": "CG3176 + CR18166 + CG32817", "DRSC id": "DRSC17271", "mean viability with MMS": 3.73e6}
{"gene": "CG3176 + CR18166 + CG32817", "DRSC id": "DRSC17282", "mean viability with MMS": 3.70e6}
{"gene": "CG3176 + CR18166 + CG32817", "DRSC id": "DRSC18288", "mean viability with MMS": 3.71e6}
{"gene": "mid", "DRSC id": "DRSC02977", "mean viability with MMS": 3.49e6}
{"gene": "mid", "DRSC id": "DRSC21493", "mean viability with MMS": 3.79e6}
{"gene": "Mst57Da + alpha4GT2", "DRSC id": "DRSC13732", "mean viability with MMS": 3.45e6}
{"gene": "CG12519", "DRSC id": "DRSC10311", "mean viability with MMS": 3.56e6}
{"gene": "CG12519", "DRSC id": "DRSC21549", "mean viability with MMS": 3.55e6}
{"gene": "AnxB11", "DRSC id": "DRSC19331", "mean viability with MMS": 3.31e6}
{"gene": "Rcd2", "DRSC id": "DRSC11756", "mean viability with MMS": 3.49e6}
{"gene": "mRpL45", "DRSC id": "DRSC16146", "mean viability with MMS": 3.68e6}
{"gene": "CG17154", "DRSC id": "DRSC10253", "mean viability with MMS": 3.52e6}
